In all, about 350,000 compounds went through this assay and about 220 (0.063%) were called active. The inconclusive results got no clear call from the source; some entries with a clear call stand among them for comparison. Calls come from the whole dose curve; as a rule, active = well fitted activation curve with a large enough effect; inconclusive = small, poorly fitted or top-dose-only effect; inactive = no such curve, though single readings can be large or run the other way. Where the call is inconclusive, the potency comes from a doubtful curve fit.
Assay: qHTS for Activators of Integrin-Mediated Alleviation for Muscular Dystrophy; note: nearly all actives have a fitted effect of over 60% in size;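 for activation: 100% = response of the positive control SU9516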
Details: alpha7betagal myoblasts, beta-gal FDG fluorescence, 48 h; activation: at 38.3 µM (top of the series)
In short: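 alpha7betagal+/- myoblasts (passage 13, 250/well) treated 48 h at 37C with compounds at 1:260 dilution of DMSO stock. Lysed, then beta-galactosidase activity read as FDG fluorescence (ex 480/em 540) after 30 min, with pre-read for autofluorescence.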
Potency is the fitted concentration of half-maximal effect.

Compound	Potency	activation
COc1ccc(S(=O)(=O)NCC2CCCN(Cc3ccccc3Cl)C2)cc1 (stereo unspecified)	inconclusive: 7.94 µM [activator, partial curve, poor fit]	
O=C(COC(=O)c1ccc(S(=O)(=O)N2CCCCC2)cc1)NCc1ccco1	inconclusive: 10 µM [activator, partial curve, poor fit]	
O=C(NCCCn1ccnc1)/C(=C/c1cccs1)NC(=O)c1ccco1	active: 8.91 µM	
COCCCn1c(=O)cc(C)[nH]c1=S		inactive: 7.16%
CCc1nnc(NS(=O)(=O)c2ccc(NC(=S)NC(=O)/C=C/c3ccc(OC)cc3)cc2)s1		inactive: 9.06%
O=S(=O)(c1ccc(Cl)cc1)N1CCC(O)(CN2CCN(Cc3ccccc3)CC2)CC1		inactive: -4.05%
O=C1C(=C2CCc3ccccc32)Cc2ccccc21		inactive: 2.01%
Cc1cccc(C(=O)Nc2ccccc2NC(=O)c2cccc(C)c2)c1	inconclusive: 5.01 µM [activator, single point]	
Cc1ccc(C(=O)NCCNC(=O)c2ccccc2)cc1	inconclusive: 1 µM [activator, partial curve, poor fit]	
Cc1nnsc1-c1nnc(SCC(=O)c2ccccc2)n1C1CC1	inconclusive: 10 µM [activator, partial curve, poor fit]	
COc1cc2c(cc1OC)CN(C(=O)c1ccc(OC)c([N+](=O)[O-])c1)CC2	inconclusive: 31.6 µM [activator, partial curve, poor fit]	
O=c1[nH]nc(-c2ccccc2)cc1-c1ccccc1	inconclusive: 2.24 µM [activator, partial curve, poor fit]	
Cc1cc(CSCc2ccc(Cl)cc2)no1	inconclusive: 3.55 µM [activator, single point]	
CCc1c(C)[nH]n(-c2ccc(Oc3ccccc3)c(S(=O)(=O)O)c2)c1=O	inconclusive: 22.4 µM [activator, single point]	
CC(=O)N(C)c1ccc(N=Nc2ccc3ncccc3c2)cc1	inconclusive: 5.01 µM [activator, partial curve]	
O=C(CN1CCOCC1)Nc1ccc(NC(=O)c2ccccc2F)cc1	inconclusive: 22.4 µM [activator, partial curve, poor fit]	
COCCn1c(SCC(=O)NC2CCCC2)nnc1-c1ccncc1	inconclusive: 28.2 µM [activator, single point]	
O=C1CSC(=S)N1/N=C/c1cc(Br)c(O)c(Br)c1		inactive: 5.37%
CCOC(=O)N1C/C(=C\c2ccccc2)C(=O)/C(=C/c2ccccc2)C1		inactive: 9.79%
C=CCN1CCN(C(c2ccccc2)c2nnnn2CCC(C)C)CC1 (stereo unspecified)		inactive: -54.4%
OCCN1CCN(Cc2cc(Br)cc(Br)c2O)CC1		inactive: -6.96% [at 7.66 µM]
CCOC(=O)C1=C(COC(=O)c2ccc(Br)c(S(=O)(=O)N3CCOCC3)c2)NC(=O)NC1C (stereo unspecified)	inconclusive: 2.82 µM [activator, partial curve, poor fit]	
Cc1ccccc1NC(=O)c1ccc2c(O)c(S(=O)(=O)c3ccccc3)c(=O)[nH]c2c1	inconclusive: 14.1 µM [activator, partial curve, poor fit]	
Cc1ccc(S(=O)(=O)N(C)CC(=O)NCCCn2ccnc2)cc1	inconclusive: 28.2 µM [activator, single point]	

Exported with bars between the fields: entries from further up
Compound | Potency | activation
COc1ccc(S(=O)(=O)NCC2CCCN(Cc3ccccc3Cl)C2)cc1 (stereo unspecified) | inconclusive: 7.94 µM [activator, partial curve, poor fit] | 
O=C(COC(=O)c1ccc(S(=O)(=O)N2CCCCC2)cc1)NCc1ccco1 | inconclusive: 10 µM [activator, partial curve, poor fit] | 

Carrying on.

Compound	Potency	activation
O=[N+]([O-])c1cnc(Nc2ccccc2)nc1Nc1ccccc1		inactive: 3.34%
Cc1nc2ccc([N+](=O)[O-])cc2nc1C	inconclusive: 10 µM [activator, single point]	
COc1ccc(S(=O)(=O)N2CCc3cc(OC)c(OC)cc3C2)cc1	inconclusive: 7.08 µM [activator, single point]	
O=C(CN1CSCC1=O)N1CCN(S(=O)(=O)c2ccc(Cl)cc2)CC1		inactive: -2.46%
CC1=NN(c2ccc(Cl)c(C(=O)O)c2)C(=O)C1		inconclusive: 26.5% [activator]
CC(=O)c1ccc(NC(=O)Nc2ccc(Br)cc2C)cc1	inconclusive: 14.1 µM [activator, single point]	
NS(=O)(=O)c1ccc(CCNC(=S)Nc2ccc(F)cc2)cc1	inconclusive: 14.1 µM [activator, single point]	
O=S(=O)(/C=C/c1ccccc1)N1CCN(Cc2ccc3c(c2)OCO3)CC1	inconclusive: 2.24 µM [activator, full curve, poor fit]	
COc1ccc(S(=O)(=O)N2CCN(Cc3ccccc3)CC2)cc1OC	inconclusive: 3.16 µM [activator, single point]	
O=C(O)Cn1cc(C(=O)C(F)(F)F)c2ccccc21	inconclusive: 15.8 µM [activator, partial curve, poor fit]	
CCOc1ccccc1C(=O)NC1CCN(Cc2ccccc2)CC1		inactive: -28.1%
Cc1ccc(S(=O)(=O)N2CCCCC2)cc1NC(=O)COC(=O)CN1C(=O)NC2(CC(C)CC(C)(C)C2)C1=O (stereo unspecified)	inconclusive: 1 µM [activator, partial curve, poor fit]	
COc1ccc(C2CC(c3cccs3)=NN2S(C)(=O)=O)cc1OC (stereo unspecified)	inconclusive: 28.2 µM [activator, single point]	
O=c1c2ccccc2nc(-c2ccco2)n1CCc1ccc(O)cc1	inconclusive: 3.16 µM [activator, single point]	
COc1ccccc1CNC(=O)CCC(=O)N1Cc2cccc(OC)c2Oc2ncccc21		inactive: 24.8%
COC(=O)c1ccc(N)c(N=CC2=C(O)CC(C)(C)CC2=O)c1		inactive: -3.1%
CCC(=O)Nc1cccc(C(=O)/C=C/c2ccccc2)c1		inactive: -55.5%
Cc1ccccc1NC(=O)c1ccc([N+](=O)[O-])o1		inactive: -59.5%
CCOC(=O)CC1(NC(=O)C2CCC(=O)N(Cc3ccccc3F)C2)CCCCC1 (stereo unspecified)	inconclusive: 1 µM [activator, partial curve, poor fit]	
CC1=C(C(=O)OC2CCCC2)C(c2coc3ccccc3c2=O)C2=C(CC(C)(C)CC2=O)N1 (stereo unspecified)	inconclusive: 28.2 µM [activator, single point]	
O=C(O)C1C2CCC(C2)C1C(=O)NCCC1=CCCCC1 (stereo unspecified)	inconclusive: 17.8 µM [activator, single point]	
COc1ccc(NC(=S)N2CCN(C)CC2)cc1		inactive: 7.77%
COc1ccc(NC(=O)c2ccccc2NC(=O)C2CC=CCC2C(=O)O)cc1 (stereo unspecified)	inconclusive: 1.12 µM [activator, partial curve, poor fit]	
CC(C)(C)c1ccc(OCC(O)CN2CCN(c3ccccn3)CC2)cc1 (stereo unspecified)		inactive: -42.2%

Among those listed so far, these contain an aryl thioether with sulfur outside any ring.
Compound	Potency	activation
Cc1nnsc1-c1nnc(SCC(=O)c2ccccc2)n1C1CC1	inconclusive: 10 µM [activator, partial curve, poor fit]	
COCCn1c(SCC(=O)NC2CCCC2)nnc1-c1ccncc1	inconclusive: 28.2 µM [activator, single point]	

Following part

Compound	Potency	activation
C=CCn1c(C)cc(C(=O)COc2ccc(C)nc2[N+](=O)[O-])c1C		inactive: 10.3%
Cc1ccc(S(=O)(=O)N2CCOCC2)cc1NC(=O)CSc1nnnn1C1CCCC1	inconclusive: 3.55 µM [activator, single point]	
O=C(O)C1C2C=CC(C2)C1C(=O)OCC1CCCO1 (stereo unspecified)	inconclusive: 3.98 µM [activator, single point]	
O=C1NC(=O)C(c2ccccc2)(c2ccc(O)cc2)N1 (stereo unspecified)	inconclusive: 12.6 µM [activator, single point]	
CCOC(=O)CCCSc1nc(-c2ccc3c(c2)OCO3)cc(C(F)(F)F)c1C#N		inactive: -0.601%
COc1ccc(S(=O)(=O)N2CCC[C@H]2C(=O)NC2=NCCS2)cc1		inactive: 28.1% [at 7.66 µM]
Cc1ccc(N=Nc2c(N)[nH]n3c(=O)cc(C)nc23)cc1	inconclusive: 2 µM [activator, partial curve, poor fit]	
c1ccc2c(c1)CCN(c1nc3ccccc3n3cnnc13)C2		inactive: -13.1%
Cc1cc(C)c2cc(C(=O)Nc3ccc(C)c(F)c3)[nH]c2c1	inconclusive: 2 µM [activator, partial curve, poor fit]	
CC(C)(C)NC(=O)C(c1ccco1)N(Cc1ccc2c(c1)OCO2)C(=O)c1snc(C(N)=O)c1N (stereo unspecified)	inconclusive: 3.16 µM [activator, single point]	
C=CS(=O)(=O)c1ccc(Oc2ccc(S(=O)(=O)C=C)cc2)cc1		inactive: -60.7%
CC(C)CC(=O)Nc1nnc(SCC(=O)NC2CCCC2)s1		inactive: -1.71%
COc1cc(OC)c(OC)cc1/C=N/NC(=O)c1cnccn1	inconclusive: 28.2 µM [activator, single point]	
Cc1cc(OC(C)C(=O)NCCCN2CCOCC2)c2c(C)cc(=O)oc2c1 (stereo unspecified)	inconclusive: 2.51 µM [activator, full curve, poor fit]	
CCc1ccc2nc(Nc3ccc(OC)cc3OC)c(C#N)cc2c1	inconclusive: 10 µM [activator, partial curve, poor fit]	
CCCC(=O)Nc1c(-c2ccccc2)c(=O)c(C)nn1-c1ccccc1	inconclusive: 2.82 µM [activator, single point]	
Cc1ccccc1-n1c(O)c(C=NC2CCS(=O)(=O)C2)c2ccccc2c1=O (stereo unspecified)	inconclusive: 2.82 µM [activator, single point]	
Cc1cc(C)n2c(=S)[nH]nc2n1		inactive: 3.83%
CCc1ccc(N2CC(C(=O)Nc3ccc(C)c(S(=O)(=O)N4CCOCC4)c3)CC2=O)cc1 (stereo unspecified)		inactive: -20.8%
CCCn1c(=N)c(C(=O)NCc2ccc3c(c2)OCO3)cc2c(=O)n3cccc(C)c3nc21	inconclusive: 3.16 µM [activator, single point]	
N=c1c2c(-c3ccccc3)c(-c3ccccc3)n(Cc3ccco3)c2ncn1CCO		inactive: -51.3%
O=C(c1ccc(Cl)cc1Cl)N1CCc2ccccc21	inconclusive: 1.41 µM [activator, partial curve, poor fit]	
Cc1ccc(C(C(=O)NC2CCCCC2)N(Cc2cccnc2)C(=O)c2csnn2)cc1 (stereo unspecified)		inactive: -1.22%
